Screen size: about 320,000 compounds; about 22,000 (6.9%) were called active. Inconclusive results, whose numbers are uncertain, are shown with a selection of clear calls. Calls come from the whole dose curve; as a rule, active = well fitted inhibition curve with a large enough effect; inconclusive = small, poorly fitted or top-dose-only effect, or another doubt; inactive = no such curve, though single readings can be large or run the other way. Potencies beside an inconclusive call are fits to weak or partial responses and may not hold up.
test: Primary qHTS for delayed death inhibitors of the malarial parasite plastid, 96 hour incubation; settings: P. falciparum luciferase reporter growth; series mostly up to 28.7 µM; activity change, negative = inhibition: at the top concentration
In short: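 Infected RBCs, 2% Hct / 0.05% parasitemia final; luciferase-reporter P. falciparum; cpd 96 h, 37 C, 5% CO2; luciferase detection reagent; luminescence.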
% is set by controls: 0 for no effect and ±100 for the full control effect; potency is the fitted concentration of half-maximal effect.

Compound | Potency | activity change, negative = inhibition
CS(=O)(=O)N(CC(=O)N1CCCCCC1)c1ccc(Br)cc1 | inconclusive: 2.94 µM [inhibitor, partial curve, poor fit] | –
Cc1ccccc1NC(=S)N(Cc1cccnc1)Cc1ccco1 | active: 1.85 µM | –
CO[C@@]1(NC(=O)CSCC#N)C(=O)N2C(C(=O)O)=C(CSc3nnnn3C)CS[C@@H]21 | – | inactive: -13.2%
CCCCCCc1ccc(N2C[C@H](Cc3ccccc3)[C@@H](CC(=O)NCc3ccc(OC)cc3)C2=O)cc1 | inconclusive: 6.57 µM [inhibitor, partial curve, poor fit] | –
Cc1ccc(S(=O)(=O)Cn2nnnc2C(C(C)C)N2CCSCC2)cc1 (centres undefined) | inconclusive: 18.5 µM [inhibitor, single point] | –
O=C(Cn1ncc(Cl)c(Cl)c1=O)Nc1ccc2c(c1)OCO2 | – | inactive: -4.33%
COc1ccc(OC)c(S(=O)(=O)NC(C)c2cnn(-c3ccccn3)c2C)c1 (centres undefined) | active: 14.7 µM | –
CCN(CC)c1ccc(NC(=O)c2cccnc2)c(C)c1 | inconclusive: 0.0083 µM [inhibitor, full curve, poor fit] | –
CCOC(=O)c1ccccc1NC(=O)COC(=O)CCNS(=O)(=O)c1ccccc1 | – | inactive: 6.39%
COc1ccccc1NC(=O)COC(=O)c1ccccc1C(=O)N1CCN(c2ccccc2)CC1 | – | inactive: -20%
CCC1CCCCN1C(=O)NC(=O)c1ccccc1 (centres undefined) | inconclusive: 11.7 µM [inhibitor, single point] | –
COc1ccc(CN(C)C(=O)c2ccc(NS(=O)(=O)c3ccc(F)cc3)cc2)c(OC)c1OC | inconclusive: 13.1 µM [inhibitor, partial curve] | –
O=C(COc1cccc(C(F)(F)F)c1)Nc1cccnc1 | – | inactive: 15.3%
COc1ccc2cc(CCNC(=O)CC(C)(C)C)c(=O)[nH]c2c1 | – | inactive: 470%
CC(=O)c1cccc(N=c2scc(-c3ccc(S(=O)(=O)N4CCOCC4)cc3)n2CCO)c1 | active: 4.65 µM | –
Cc1ccc(Cn2cccc2/C=N/NC(=S)Nc2ccc(C)cc2)cc1 | – | inactive: -29.3%
CCOC(=O)Cc1csc(NC(=O)c2sc3nc4c(C)cc(C)cc4cc3c2N)n1 | inconclusive: 18.5 µM [inhibitor, single point] | –
CCOC(=O)C(CCc1ccccc1)NC(C)C(=O)N1Cc2cc(OC)c(OC)cc2CC1C(=O)O (centres undefined) | active: 12 µM | –
O=C(CSc1nc2ccccc2s1)NC1CCCC1 | – | inactive: 4.11%
CN1CCN(CCNC(=O)Nc2ccccc2[N+](=O)[O-])CC1 | active: 8.28 µM | –
CCn1c(=O)n(CC)c2cc(NC(=O)C(C)c3ccccc3)c(Br)cc21 (centres undefined) | – | inactive: 6.38%
COc1cccc(/C=N/NC(=O)c2c(-c3ccccc3)noc2C)c1O | inconclusive: 14.7 µM [inhibitor, partial curve, poor fit] | –
CN(CC1CCOCC1)C(=O)CC1C(=O)NCCN1Cc1ccc(-c2ccccc2)cc1 (centres undefined) | inconclusive: 11.7 µM [inhibitor, single point] | –

Compound | Potency | activity change, negative = inhibition
COc1ccc(NC(=O)NNC(=O)C(O)(c2ccccc2)c2ccccc2)cc1 | inconclusive: 18.5 µM [inhibitor, single point] | –
CC1CCCC(C)N1CCCNC(=O)c1cc2c(=O)n(C)c3ccccc3c2n1C (centres undefined) | inconclusive: 10.4 µM [inhibitor, partial curve, poor fit] | –
CC(=O)NS(=O)(=O)c1ccc(NC(=O)c2ccc3c(c2)OCO3)cc1 | inconclusive: 18.5 µM [inhibitor, single point] | –
CC(C)C(=O)Nc1ccccc1N1CCN(S(C)(=O)=O)CC1 | – | inactive: -2.76%
COC(=O)C(CCSC)NC(=O)Cn1ncc2c(=O)oc3ccc(C)cc3c21 (centres undefined) | active: 14.7 µM | –
COC(=O)C1(CO)NC(c2cccs2)C2C(=O)N(c3ccccc3)C(=O)C21 (centres undefined) | inconclusive: 11.7 µM [inhibitor, partial curve, poor fit] | –
CC1(C)CC(=O)C(CS(=O)(=O)c2ccccc2)=C(Cl)C1 | – | inactive: 1.21%
Cc1noc(C)c1S(=O)(=O)N(CC(=O)N1CCc2ccccc21)c1ccc(C(C)C)cc1 | inconclusive: 11.7 µM [inhibitor, single point] | –
Cc1csc(NC(=O)C2CCN(C(=O)c3ccccc3C)CC2)n1 | inconclusive: 14.7 µM [inhibitor, single point] | –
O=C(Nc1nnc(N2CCCCCC2)s1)c1cc(-c2ccc(Br)cc2)on1 | inconclusive: 10.4 µM [inhibitor, single point] | –
COc1ccc(NC(=O)C(=O)NNC(=O)c2cccs2)c(OC)c1 | – | inactive: 90.8%
Cc1c(NC(=S)Nc2ccccc2C(F)(F)F)cccc1[N+](=O)[O-] | inconclusive: 16.5 µM [inhibitor, single point] | –
COc1cccc(C2=N/C(=C\N(C)C)C(=O)O2)c1 | inconclusive: 18.5 µM [inhibitor, single point] | –
CC(C)(O)CCCC(C)(O)c1ccc(C(=O)O)cc1O (centres undefined) | inconclusive: 6.01 µM [inhibitor, partial curve] | –
Cc1ccc(O)c(-c2cc(-c3ccc(F)cc3)no2)c1 | inconclusive: 10.4 µM [inhibitor, partial curve, poor fit] | –
Cc1ccc(NC(=S)NCC2CCN(C(C)c3ccccc3)C2)cc1C (centres undefined) | – | inactive: -85.9%
COc1cccc(-c2csc3nnc(SCC(=O)NCc4cccs4)n23)c1 | inconclusive: 13.1 µM [inhibitor, single point] | –
COC(=O)c1ccc(/C=N/n2cnnc2)cc1 | inconclusive: 2.08 µM [inhibitor, partial curve, poor fit] | –
COc1ccc(C2c3[nH]c4ccccc4c3C[C@H]3C(=O)N(c4ccccc4C(=O)N4CCC(C(=O)O)CC4)C(=O)N23)cc1 (some centres undefined) | inconclusive: 13.1 µM [inhibitor, partial curve] | –
CCOC(=O)C1=C(C)NC(=S)NC1c1ccc(OCC(=O)N2CCCCCC2)c(OC)c1 (centres undefined) | inconclusive: 10.4 µM [inhibitor, partial curve, poor fit] | –
O=C(NCCN1C(=O)S/C(=C\c2ccccc2F)C1=O)C1=COCCO1 | inconclusive: 14.7 µM [inhibitor, single point] | –
Cc1ccc(Cl)cc1NS(=O)(=O)c1ccc2oc(=O)ccc2c1 | inconclusive: 18.5 µM [inhibitor, single point] | –
O=C(NC(=O)c1c(F)cccc1F)Nc1ccc(Cl)c(Oc2ncc(C(F)(F)F)cc2Cl)c1 | inconclusive: 8.49 µM [inhibitor, partial curve] | –

By substructure: the compounds so far with a Cl atom (four)
Compound | Potency | activity change, negative = inhibition
O=C(Cn1ncc(Cl)c(Cl)c1=O)Nc1ccc2c(c1)OCO2 | – | inactive: -4.33%
CC1(C)CC(=O)C(CS(=O)(=O)c2ccccc2)=C(Cl)C1 | – | inactive: 1.21%
Cc1ccc(Cl)cc1NS(=O)(=O)c1ccc2oc(=O)ccc2c1 | inconclusive: 18.5 µM [inhibitor, single point] | –
O=C(NC(=O)c1c(F)cccc1F)Nc1ccc(Cl)c(Oc2ncc(C(F)(F)F)cc2Cl)c1 | inconclusive: 8.49 µM [inhibitor, partial curve] | –

Retrieved by structure from above, 2 records:
Compound | Potency | activity change, negative = inhibition
O=C(Cn1ncc(Cl)c(Cl)c1=O)Nc1ccc2c(c1)OCO2 | – | inactive: -4.33%
CC1CCCC(C)N1CCCNC(=O)c1cc2c(=O)n(C)c3ccccc3c2n1C (centres undefined) | inconclusive: 10.4 µM [inhibitor, partial curve, poor fit] | –

The results go on.

Compound | Potency | activity change, negative = inhibition
Cc1ccc(NS(=O)(=O)c2cccc(C(=O)NCCCN3CCCC3=O)c2)cc1 | inconclusive: 6.57 µM [inhibitor, partial curve, poor fit] | –
O=C(O)CN1C(=O)/C(=C\c2cc(Br)ccc2OCc2ccc(F)cc2)SC1=S | – | inactive: -12.3%
Oc1ccc(Br)cc1/C=N/N1CCN(Cc2ccccc2)CC1 | – | inactive: 38.7%
COc1ccc(CCNC(=O)Cn2nnc(C(=O)Nc3cc(C)ccc3C)c2N)cc1OC | inconclusive: 18.5 µM [inhibitor, single point] | –
O=C1c2ccccc2C(Nc2ccc(S(=O)(=O)N3CCCCC3)cc2)N1Cc1ccco1 (centres undefined) | inconclusive: 10.4 µM [inhibitor, partial curve, poor fit] | –
CCc1cccc2c(-c3csc(=NC)n3C)c[nH]c12 | inconclusive: 20.8 µM [inhibitor, partial curve, poor fit] | –
C=CCNC(=S)NNC(=O)COc1ccc(Br)cc1 | active: 5.86 µM | –
COc1ccc(N2CCN(C(=O)c3ccc(N4CCCCS4(=O)=O)cc3)CC2)cc1 | – | inactive: 108%
Cc1ccnc(NC(=O)CCC(=O)N(CC(=O)NCCc2ccccc2)Cc2ccco2)c1 | inconclusive: 18.5 µM [inhibitor, single point] | –
COc1ccc(NC(=O)CN(C)C(=O)CCSc2ccc(C)cc2)cc1 | inconclusive: 18.5 µM [inhibitor, single point] | –
COc1ccc(C(C)=O)cc1COC(=O)c1ccc2ccccc2n1 | – | inactive: 29.2%
Nc1nc(N2CCOCC2)cc(=O)[nH]1 | inconclusive: 18.5 µM [inhibitor, single point] | –
c1ccc(CN2CCN(C(c3ccccc3)c3ccccc3)CC2)cc1 | inconclusive: 11.7 µM [inhibitor, single point] | –
Oc1ccc(Nc2nc(-c3cccnc3)cs2)cc1 | inconclusive: 18.5 µM [inhibitor, single point] | –
COc1cccc(CNC(=O)CCC2CCCN(C(=O)c3csc(C(C)C)n3)C2)c1 (centres undefined) | active: 13.1 µM | –
CCOC(=O)c1cc(C)n(Cc2cccc(OC)c2OC)c1C | active: 2.33 µM | –
Cc1cc(OCc2nnc(SC(C)C(=O)O)n2-c2ccccc2)ccc1Cl (centres undefined) | inconclusive: 13.1 µM [inhibitor, single point] | –
O=C(NCc1cccnc1)C(=O)NCC(c1ccco1)N1CCN(c2ccccc2F)CC1 (centres undefined) | inconclusive: 16.5 µM [inhibitor, single point] | –
CC1CCN(S(=O)(=O)c2cccc(S(=O)(=O)N3CCOCC3)c2)CC1 | inconclusive: 11.7 µM [inhibitor, single point] | –
O=C(CSc1nc2ccccc2c(=O)n1CCCO)Nc1ccc2c(c1)OCCO2 | inconclusive: 5.22 µM [inhibitor, partial curve] | –
CCCCNc1ncnc2sc3c(c12)CCN(CCC)C3 | inconclusive: 5.22 µM [inhibitor, partial curve, poor fit] | –
NC(=O)CSc1nnc2n(N)c(=O)c3ccccc3n12 | inconclusive: 18.5 µM [inhibitor, single point] | –
O=C(CSc1ccccc1)NCc1ccccc1 | inconclusive: 18.5 µM [inhibitor, single point] | –

Reference: PubChem BioAssay AID504834 (National Center for Advancing Translational Sciences (NCATS), 2011)
